The values that follow come from doi:10.1101/2022.10.05.511050 (bioRxiv, 2022).

Chains of the proteins cited; added tags and fusions are not shown. Lines headed by an entry give the natural chain unless they say otherwise; changes in a name come on top. Residues count along the entry.
UniProt Q9R016, whole entry: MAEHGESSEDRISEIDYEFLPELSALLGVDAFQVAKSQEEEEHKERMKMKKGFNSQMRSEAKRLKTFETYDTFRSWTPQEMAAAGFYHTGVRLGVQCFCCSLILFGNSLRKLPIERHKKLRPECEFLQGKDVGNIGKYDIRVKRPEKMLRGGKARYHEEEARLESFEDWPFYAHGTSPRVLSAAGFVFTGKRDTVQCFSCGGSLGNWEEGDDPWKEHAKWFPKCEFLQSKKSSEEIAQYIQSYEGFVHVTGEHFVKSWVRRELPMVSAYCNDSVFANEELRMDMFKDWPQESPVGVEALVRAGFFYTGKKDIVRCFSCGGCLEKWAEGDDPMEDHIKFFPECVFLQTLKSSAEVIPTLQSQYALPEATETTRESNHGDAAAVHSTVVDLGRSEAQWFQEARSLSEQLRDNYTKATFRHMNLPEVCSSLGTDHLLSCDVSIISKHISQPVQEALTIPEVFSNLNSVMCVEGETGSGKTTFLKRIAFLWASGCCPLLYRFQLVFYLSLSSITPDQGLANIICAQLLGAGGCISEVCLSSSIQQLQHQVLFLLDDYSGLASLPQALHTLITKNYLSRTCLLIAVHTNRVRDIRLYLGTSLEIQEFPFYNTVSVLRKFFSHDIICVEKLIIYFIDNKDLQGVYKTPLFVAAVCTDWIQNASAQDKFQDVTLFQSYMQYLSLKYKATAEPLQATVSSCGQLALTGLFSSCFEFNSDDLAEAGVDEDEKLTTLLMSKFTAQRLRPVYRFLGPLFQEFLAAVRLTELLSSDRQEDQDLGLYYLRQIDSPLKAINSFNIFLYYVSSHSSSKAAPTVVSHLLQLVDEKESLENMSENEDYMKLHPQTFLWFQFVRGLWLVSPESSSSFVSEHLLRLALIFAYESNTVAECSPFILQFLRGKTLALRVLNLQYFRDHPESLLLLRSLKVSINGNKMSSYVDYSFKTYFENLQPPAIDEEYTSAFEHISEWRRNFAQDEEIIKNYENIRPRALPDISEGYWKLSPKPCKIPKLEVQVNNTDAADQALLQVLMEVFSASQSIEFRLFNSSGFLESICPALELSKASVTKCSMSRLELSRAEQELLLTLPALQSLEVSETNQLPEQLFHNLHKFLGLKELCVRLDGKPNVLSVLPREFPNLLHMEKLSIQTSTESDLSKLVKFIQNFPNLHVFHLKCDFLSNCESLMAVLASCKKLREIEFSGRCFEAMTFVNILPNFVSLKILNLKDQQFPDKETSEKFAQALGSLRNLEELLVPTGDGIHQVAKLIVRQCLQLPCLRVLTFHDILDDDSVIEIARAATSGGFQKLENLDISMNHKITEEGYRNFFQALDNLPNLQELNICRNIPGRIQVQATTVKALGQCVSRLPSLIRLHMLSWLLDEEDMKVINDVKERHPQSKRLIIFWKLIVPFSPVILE
UniProt Q8R4B8, whole entry: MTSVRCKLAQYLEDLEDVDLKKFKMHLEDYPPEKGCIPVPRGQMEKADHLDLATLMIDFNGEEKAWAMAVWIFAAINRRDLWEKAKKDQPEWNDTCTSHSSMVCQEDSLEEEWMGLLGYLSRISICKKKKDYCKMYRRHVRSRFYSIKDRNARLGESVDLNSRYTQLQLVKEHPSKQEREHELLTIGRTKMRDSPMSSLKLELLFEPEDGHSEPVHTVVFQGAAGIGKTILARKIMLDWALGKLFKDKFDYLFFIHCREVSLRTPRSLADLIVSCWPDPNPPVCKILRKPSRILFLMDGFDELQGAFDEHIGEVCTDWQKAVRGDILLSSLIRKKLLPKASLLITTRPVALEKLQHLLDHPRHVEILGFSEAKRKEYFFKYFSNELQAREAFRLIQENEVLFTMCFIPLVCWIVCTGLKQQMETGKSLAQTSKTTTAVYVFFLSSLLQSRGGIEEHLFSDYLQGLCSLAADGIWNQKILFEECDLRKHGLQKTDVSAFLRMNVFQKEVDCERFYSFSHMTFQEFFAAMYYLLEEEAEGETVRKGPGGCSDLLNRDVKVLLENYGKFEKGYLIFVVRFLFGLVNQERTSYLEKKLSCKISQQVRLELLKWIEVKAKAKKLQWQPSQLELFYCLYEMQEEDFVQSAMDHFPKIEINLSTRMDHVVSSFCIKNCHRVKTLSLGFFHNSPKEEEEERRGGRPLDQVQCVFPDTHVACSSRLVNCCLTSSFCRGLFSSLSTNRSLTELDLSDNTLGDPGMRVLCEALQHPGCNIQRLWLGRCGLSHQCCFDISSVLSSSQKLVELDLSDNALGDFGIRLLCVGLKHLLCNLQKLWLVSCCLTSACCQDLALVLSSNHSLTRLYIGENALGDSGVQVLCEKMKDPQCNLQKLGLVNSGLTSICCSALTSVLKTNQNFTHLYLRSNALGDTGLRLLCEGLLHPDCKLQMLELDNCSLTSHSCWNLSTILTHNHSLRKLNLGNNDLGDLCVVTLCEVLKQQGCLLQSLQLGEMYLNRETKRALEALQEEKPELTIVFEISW
UniProt Q3UP24, whole entry: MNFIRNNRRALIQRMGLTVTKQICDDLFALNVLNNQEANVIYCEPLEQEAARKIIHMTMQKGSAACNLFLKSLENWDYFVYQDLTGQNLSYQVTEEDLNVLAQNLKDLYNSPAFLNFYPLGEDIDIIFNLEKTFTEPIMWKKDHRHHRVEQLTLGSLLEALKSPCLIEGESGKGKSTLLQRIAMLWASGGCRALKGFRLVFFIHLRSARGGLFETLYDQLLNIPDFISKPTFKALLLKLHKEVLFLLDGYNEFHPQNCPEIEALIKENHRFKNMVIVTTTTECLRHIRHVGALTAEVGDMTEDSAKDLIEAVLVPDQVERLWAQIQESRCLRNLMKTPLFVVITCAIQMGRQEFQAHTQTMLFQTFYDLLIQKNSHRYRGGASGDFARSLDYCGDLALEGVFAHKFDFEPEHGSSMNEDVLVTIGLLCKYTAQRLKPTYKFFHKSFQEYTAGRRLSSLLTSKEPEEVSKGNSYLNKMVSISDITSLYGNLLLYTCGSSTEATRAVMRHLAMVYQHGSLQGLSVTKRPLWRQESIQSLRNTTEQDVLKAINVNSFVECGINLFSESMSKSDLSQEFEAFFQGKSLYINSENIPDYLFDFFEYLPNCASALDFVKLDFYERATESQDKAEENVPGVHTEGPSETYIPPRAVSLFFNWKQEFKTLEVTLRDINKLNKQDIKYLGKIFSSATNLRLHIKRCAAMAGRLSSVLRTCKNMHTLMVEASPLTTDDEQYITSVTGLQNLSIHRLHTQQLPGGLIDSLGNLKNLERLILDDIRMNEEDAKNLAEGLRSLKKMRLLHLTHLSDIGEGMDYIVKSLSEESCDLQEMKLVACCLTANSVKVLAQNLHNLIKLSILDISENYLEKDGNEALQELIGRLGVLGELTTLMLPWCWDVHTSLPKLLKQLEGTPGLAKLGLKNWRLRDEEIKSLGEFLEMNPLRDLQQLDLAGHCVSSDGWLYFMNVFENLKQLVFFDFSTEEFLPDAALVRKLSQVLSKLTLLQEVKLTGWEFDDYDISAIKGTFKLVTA
UniProt Q9QUN7, 25-784: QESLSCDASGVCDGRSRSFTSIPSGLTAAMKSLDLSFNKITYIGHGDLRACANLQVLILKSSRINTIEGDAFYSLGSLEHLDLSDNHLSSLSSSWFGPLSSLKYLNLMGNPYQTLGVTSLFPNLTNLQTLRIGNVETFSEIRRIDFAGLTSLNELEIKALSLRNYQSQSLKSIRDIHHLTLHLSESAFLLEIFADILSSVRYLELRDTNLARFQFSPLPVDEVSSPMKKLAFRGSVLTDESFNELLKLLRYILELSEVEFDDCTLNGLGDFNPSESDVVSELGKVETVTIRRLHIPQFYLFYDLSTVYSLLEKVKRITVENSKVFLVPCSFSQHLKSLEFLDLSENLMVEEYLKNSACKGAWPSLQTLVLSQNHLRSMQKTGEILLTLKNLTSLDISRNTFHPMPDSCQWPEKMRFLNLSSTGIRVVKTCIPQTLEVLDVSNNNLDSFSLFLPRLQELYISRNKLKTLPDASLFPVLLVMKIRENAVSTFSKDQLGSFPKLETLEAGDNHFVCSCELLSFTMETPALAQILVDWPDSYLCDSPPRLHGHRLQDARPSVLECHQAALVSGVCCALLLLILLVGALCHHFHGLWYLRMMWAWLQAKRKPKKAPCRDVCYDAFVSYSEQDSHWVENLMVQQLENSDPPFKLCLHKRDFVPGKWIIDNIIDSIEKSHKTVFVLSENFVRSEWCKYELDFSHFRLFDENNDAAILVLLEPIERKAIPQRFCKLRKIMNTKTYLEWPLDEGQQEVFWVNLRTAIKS
UniProt Q3TL44, 87-975: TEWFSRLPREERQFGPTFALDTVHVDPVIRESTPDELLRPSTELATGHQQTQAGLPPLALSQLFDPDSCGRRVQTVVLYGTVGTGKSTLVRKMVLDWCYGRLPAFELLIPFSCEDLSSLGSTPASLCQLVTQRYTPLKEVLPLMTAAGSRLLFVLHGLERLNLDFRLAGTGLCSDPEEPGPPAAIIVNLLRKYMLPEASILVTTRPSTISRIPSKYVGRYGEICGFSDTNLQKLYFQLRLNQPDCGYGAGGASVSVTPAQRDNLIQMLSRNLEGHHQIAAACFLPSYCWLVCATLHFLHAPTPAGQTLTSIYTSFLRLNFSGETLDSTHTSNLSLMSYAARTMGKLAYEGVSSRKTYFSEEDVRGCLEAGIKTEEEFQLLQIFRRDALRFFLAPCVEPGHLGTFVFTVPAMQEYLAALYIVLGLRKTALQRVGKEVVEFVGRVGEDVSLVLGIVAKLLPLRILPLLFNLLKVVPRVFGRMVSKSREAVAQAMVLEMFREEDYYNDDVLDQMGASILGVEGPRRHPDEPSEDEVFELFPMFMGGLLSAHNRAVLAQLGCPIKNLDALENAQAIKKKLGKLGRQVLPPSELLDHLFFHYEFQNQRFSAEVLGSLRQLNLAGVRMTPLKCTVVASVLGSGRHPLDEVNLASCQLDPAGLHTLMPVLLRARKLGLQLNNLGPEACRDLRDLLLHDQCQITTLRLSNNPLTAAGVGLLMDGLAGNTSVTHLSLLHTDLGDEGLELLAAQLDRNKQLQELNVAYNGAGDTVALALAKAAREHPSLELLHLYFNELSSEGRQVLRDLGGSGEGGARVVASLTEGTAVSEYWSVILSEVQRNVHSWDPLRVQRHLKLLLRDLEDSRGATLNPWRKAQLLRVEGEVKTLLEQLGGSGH

No constants are given. Whether binding was seen depends on the method and setting. In cells and extracts the contact can be indirect. Some binding calls cover weakened binding; strength is not graded here. For part of these data: Sequences can lack the tags named with a protein.

One test concerns the target Flag-tagged NAIP5 (UniProt Q9R016). In words: co-IP.
Test [1] addresses endogenous NLRP3 (BMDMs) (mouse (endogenous in BMDMs)) (UniProt Q8R4B8). As to the kind of experiment: co-IP.
For test [2], the target named is Flag-tagged NLRC4 (reconstituted in Nlrc4-/- BMDMs) (UniProt Q3UP24). In words: co-IP.
Test [3] concerns the target Flag-PELO (reconstituted in Pelo mKO BMDMs) (UniProt Q80X73). As to the kind of experiment: co-IP.
For test [4], the target named is Flag-tagged PELO (HEK293T) (UniProt Q80X73). In words: co-IP.
The target of test [5] is Flag-tagged full length (WT) NLRP3 (HEK293T) (mouse) (UniProt Q8R4B8). In words: co-IP.
The target of the next test is HA-tagged NLRC4 (UniProt Q3UP24 1-1024). As to the kind of experiment: co-sedimentation.
Test [6] has as its target Flag-tagged full length (WT) NLRC4 (HEK293T) (mouse) (UniProt Q3UP24). In words: co-IP.
For test [7], the target named is T1, Flag-tagged truncated NLRP6: NACHT domain (mouse) (UniProt Q91WS2).
T1 sequence: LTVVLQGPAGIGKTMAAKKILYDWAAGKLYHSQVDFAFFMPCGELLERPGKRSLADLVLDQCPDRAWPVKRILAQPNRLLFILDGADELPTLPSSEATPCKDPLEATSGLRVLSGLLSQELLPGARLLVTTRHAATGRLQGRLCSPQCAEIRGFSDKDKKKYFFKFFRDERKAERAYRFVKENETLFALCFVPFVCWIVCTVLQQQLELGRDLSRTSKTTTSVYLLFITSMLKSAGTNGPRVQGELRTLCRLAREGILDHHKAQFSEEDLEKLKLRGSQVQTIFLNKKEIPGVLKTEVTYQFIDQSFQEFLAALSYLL
In words: co-IP.

Test [8] has as its target T2, Flag-tagged truncated NOD2: NACHT domain (mouse) (UniProt Q8K3Z0).
T2 sequence: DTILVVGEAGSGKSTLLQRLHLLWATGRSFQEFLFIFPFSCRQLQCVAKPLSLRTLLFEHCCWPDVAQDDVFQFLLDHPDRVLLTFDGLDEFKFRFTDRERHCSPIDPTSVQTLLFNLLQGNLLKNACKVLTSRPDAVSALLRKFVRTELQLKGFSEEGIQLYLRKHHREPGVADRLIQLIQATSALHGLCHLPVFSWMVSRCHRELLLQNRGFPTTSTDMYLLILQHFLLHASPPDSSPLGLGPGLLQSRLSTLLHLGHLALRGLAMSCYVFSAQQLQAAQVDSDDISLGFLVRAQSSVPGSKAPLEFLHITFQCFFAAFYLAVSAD
In words: co-IP.

Test [9] deals with TLR2 (co-expressed with PELO in HEK293T) (UniProt Q9QUN7). As to the kind of experiment: co-IP.
In test [10] the target is Flag-tagged truncated NLRC4: NACHT domain (mouse) (UniProt Q3UP24). As to the kind of experiment: co-IP.
A further test concerns the target Flag-tagged NLRX1 (UniProt Q3TL44). In words: co-IP.
In test [11] the target is T3, Flag-tagged full length (WT) NOD2 (mouse) (UniProt Q8K3Z0).
T3 sequence: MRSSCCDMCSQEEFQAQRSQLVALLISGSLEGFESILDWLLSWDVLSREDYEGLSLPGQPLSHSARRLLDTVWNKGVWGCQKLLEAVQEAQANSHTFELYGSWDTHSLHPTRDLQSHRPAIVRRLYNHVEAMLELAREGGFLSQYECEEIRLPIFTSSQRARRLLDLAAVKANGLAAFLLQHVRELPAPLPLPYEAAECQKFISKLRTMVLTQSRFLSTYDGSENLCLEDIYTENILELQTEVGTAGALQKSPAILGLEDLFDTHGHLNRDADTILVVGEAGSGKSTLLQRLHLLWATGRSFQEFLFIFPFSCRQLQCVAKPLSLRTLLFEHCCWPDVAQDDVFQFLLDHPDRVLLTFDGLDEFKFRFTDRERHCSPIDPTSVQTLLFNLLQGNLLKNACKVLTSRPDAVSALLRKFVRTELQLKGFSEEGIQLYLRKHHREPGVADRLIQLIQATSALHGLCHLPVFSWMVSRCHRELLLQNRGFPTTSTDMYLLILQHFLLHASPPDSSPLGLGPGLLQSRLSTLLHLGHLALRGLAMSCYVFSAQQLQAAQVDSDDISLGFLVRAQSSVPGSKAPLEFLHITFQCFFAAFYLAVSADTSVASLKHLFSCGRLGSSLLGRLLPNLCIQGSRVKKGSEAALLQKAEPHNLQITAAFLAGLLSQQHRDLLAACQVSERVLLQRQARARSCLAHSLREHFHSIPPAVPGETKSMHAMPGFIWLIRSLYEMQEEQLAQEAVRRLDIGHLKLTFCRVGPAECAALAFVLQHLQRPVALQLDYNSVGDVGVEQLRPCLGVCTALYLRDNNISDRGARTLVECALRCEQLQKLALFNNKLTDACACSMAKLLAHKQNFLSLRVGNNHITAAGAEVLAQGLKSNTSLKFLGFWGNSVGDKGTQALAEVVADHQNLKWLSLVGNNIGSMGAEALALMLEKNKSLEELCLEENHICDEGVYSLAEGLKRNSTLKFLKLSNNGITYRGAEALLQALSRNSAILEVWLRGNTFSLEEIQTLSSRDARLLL
As to the kind of experiment: co-IP.

Test [12] deals with T4, Flag-tagged full length (WT) NLRP6 (mouse) (UniProt Q91WS2).
T4 sequence: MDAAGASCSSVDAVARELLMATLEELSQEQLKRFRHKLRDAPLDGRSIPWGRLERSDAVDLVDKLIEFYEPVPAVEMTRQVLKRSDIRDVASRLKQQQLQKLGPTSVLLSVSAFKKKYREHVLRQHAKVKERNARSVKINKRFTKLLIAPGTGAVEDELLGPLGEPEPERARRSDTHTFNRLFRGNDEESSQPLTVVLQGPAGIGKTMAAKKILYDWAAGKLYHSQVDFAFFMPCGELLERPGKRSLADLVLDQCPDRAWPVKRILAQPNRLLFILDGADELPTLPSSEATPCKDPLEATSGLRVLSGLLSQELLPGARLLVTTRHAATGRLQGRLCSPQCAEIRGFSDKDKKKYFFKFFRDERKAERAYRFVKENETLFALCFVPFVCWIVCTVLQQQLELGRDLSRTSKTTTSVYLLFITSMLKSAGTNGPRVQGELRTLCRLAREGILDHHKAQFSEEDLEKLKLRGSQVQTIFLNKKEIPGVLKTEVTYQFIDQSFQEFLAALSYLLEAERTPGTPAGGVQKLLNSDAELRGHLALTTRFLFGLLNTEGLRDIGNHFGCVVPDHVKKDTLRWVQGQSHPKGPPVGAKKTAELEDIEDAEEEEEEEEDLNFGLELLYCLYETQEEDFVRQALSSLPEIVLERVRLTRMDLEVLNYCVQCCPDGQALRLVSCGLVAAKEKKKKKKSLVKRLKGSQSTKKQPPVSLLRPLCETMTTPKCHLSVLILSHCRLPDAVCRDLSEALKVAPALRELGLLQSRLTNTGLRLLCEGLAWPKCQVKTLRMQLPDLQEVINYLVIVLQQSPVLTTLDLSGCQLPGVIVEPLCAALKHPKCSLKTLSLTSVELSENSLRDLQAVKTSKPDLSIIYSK
In words: co-IP.

The target in test [13] is T5, AIM2 (co-expressed with PELO in HEK293T) (UniProt Q91VJ1).
T5 sequence: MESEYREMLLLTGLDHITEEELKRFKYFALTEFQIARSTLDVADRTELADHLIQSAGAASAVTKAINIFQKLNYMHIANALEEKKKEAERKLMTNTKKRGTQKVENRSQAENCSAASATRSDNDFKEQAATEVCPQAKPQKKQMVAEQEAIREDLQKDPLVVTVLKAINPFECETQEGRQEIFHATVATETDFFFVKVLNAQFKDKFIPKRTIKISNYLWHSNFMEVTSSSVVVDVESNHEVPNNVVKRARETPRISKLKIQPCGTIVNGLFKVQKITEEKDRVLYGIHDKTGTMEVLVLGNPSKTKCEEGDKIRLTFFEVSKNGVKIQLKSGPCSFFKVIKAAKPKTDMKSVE
In words: co-IP.

Test [14] addresses Flag-tagged truncated NLRP3: NACHT domain (mouse) (UniProt Q8R4B8). As to the kind of experiment: co-IP.
The next test concerns the target T6, Flag-tagged CIITA (UniProt P79621).
T6 sequence: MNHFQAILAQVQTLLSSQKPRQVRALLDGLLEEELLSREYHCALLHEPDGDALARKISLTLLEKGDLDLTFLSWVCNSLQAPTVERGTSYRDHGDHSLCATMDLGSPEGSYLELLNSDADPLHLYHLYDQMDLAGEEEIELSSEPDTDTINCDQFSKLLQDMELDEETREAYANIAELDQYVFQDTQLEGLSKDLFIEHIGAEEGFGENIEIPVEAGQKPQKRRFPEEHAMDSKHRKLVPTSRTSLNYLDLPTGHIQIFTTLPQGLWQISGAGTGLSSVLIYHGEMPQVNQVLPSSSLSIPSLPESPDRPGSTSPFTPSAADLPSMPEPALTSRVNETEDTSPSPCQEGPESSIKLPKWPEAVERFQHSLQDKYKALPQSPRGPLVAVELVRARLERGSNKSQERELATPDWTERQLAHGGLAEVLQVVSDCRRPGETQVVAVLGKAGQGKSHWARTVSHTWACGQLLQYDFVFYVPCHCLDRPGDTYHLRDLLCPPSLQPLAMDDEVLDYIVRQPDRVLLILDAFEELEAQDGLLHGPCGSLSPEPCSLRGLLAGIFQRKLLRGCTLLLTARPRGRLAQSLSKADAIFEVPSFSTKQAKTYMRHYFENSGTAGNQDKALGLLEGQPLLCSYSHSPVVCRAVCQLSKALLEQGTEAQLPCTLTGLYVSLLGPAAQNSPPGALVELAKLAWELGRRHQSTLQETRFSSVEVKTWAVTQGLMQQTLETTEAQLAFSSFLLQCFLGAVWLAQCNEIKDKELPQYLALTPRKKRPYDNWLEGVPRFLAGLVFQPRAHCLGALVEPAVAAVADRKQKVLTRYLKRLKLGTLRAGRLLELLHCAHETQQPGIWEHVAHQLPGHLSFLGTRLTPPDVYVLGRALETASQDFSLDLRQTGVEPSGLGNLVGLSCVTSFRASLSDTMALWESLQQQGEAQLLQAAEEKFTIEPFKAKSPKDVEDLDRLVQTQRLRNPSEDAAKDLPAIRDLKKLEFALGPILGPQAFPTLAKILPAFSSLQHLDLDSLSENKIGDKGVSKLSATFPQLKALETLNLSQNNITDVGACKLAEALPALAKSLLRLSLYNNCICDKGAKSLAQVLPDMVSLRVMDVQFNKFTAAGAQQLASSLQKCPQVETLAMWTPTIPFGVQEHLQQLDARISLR
In words: co-IP.

In the case of “HA-tagged NLRC4 (from UniProt Q3UP24 1-1024)”, the binding entry in the test with Flag-tagged NAIP5 is recorded as “binds”.

Turning to “endogenous PELO (protein pelota homolog) (from UniProt Q80X73 1-385)”, the binding entry in test [1] and in test [2] was “binds” throughout.

With “endogenous NLRP3 (BMDMs) (from UniProt Q8R4B8 1-1033)”, the binding entry in test [3] is “binds”.

Consider “HA-tagged NLRP3 (from UniProt Q8R4B8 1-1033)”, for which, in [4], the binding entry is “binds”.

For “endogenous NLRC4 (BMDMs) (from UniProt Q3UP24 1-1024)”, the binding entry in test [3] was “binds”.

Take “recombinant His-tagged PELO protein (from UniProt Q80X73 1-385)”: the binding result in test [5] is reported as “binds”.

B1: HA-tagged PELO (natural protein)
chain: MKLVRKDIEKDNAGQVTLVPEEPEDMWHTFNLVQVGDSLRASTIRKVQTESSTGSVGSNRVRTTLTLCVEAIDFDSQACQLRVKGTNIQENEYVKMGAYHTIELEPNRQFTLAKKQWDSVVLERIEQACDPAWSADVAAVVMQEGLAHVCLVTPSMTLTRAKVEVNIPRKRKGNCSQHDRALERFYEQVVQAIQRHINFEVVKCVLVASPGFVREQFCDYMFQQAVKTDNKVLLENRSKFLQVHASSGHKYSLKEALCDPTVASRLSDTKAAGEVKALDDFYKMLQHEPDRAFYGLKQVERANEALAIDTLLISDELFRHQDVATRSRYVRLVDSVKENAGTVRIFSSLHVSGEQLGQLTGVAAILRFPVPELSDQEDDSSSEED
As for B1, the binding result (with HA-tagged NLRC4; in test [5]; in test [6]; in [7]; with Flag-tagged NAIP5; in [8]) was “binds” throughout. In addition, the binding entry is listed as “no binding” in test [9]; “binds” in [10]; “no binding” with Flag-tagged NLRX1; “binds” in test [11]; “binds” in test [12]; “no binding” in test [13]. In addition, the binding result in test [14] is on record as “binds”; with Flag-tagged CIITA, “no binding”.
